Experimental data published in patent US9888688B2, “Tetrazolinone compounds and applications thereof” (Sumitomo Chemical Company, Limited, priority 2013, dated 2018).
Like-named read-outs stand apart in the source and are kept apart here. Some entries share one result that the patent states for a list of compounds. For some of these results: At least one compound was matched to its structure with a doubt left.

How the values were obtained:
Assay type in all cases: in vivo
[1] = tested on: wheat rust fungus (Puccinia recondita); assay: Wheat rust control test, foliar spray on wheat (Test Examples 3, 13, 14); conditions: wheat SHIROGANE, inoculated 5 days after spraying
[2] = tested on: rice blast fungus (Magnaporthe grisea); conditions: rice NIHONBARE, 6 days
[3] = tested on: tomato late blight fungus (Phytophthora infestans); conditions: 500 ppm foliar spray, tomato PATIO
[4] = tested on: cucumber powdery mildew fungus (Sphaerotheca fuliginea, a QoI-resistant strain, cytochrome b position 143 glycine to alanine); conditions: cucumber SAGAMI HANJIRO, 8 days
[5] = tested on: barley net blotch fungus (Pyrenophora teres); assay: Barley net blotch control test, foliar spray on barley (Test Examples 4, 16, 17, 18); conditions: barley NISHINOHOSHI, inoculated after 2 days
[6] = cultivated in a greenhouse for 4 days
[7] = cultivated in an air-conditioned room at 20° C. for 4 days

CCc1cccc(-n2nnn(C)c2=O)c1COc1ccc(-c2ccccn2)cc1C [Present Compound 7]
≤ 30%: area of lesion spots relative to that on an untreated plant ([1]; 200 ppm foliar spray) | area of lesion spots relative to that on an untreated plant ([1]; 500 ppm foliar spray) | lesion area with respect to the lesion area on the non-treated plant ([2]; 200 ppm foliar spray) | lesion area with respect to the lesion area on the non-treated plant ([2]; 500 ppm foliar spray) | area of lesion spots relative to that on an untreated plant [3, 6]

COc1cccc(-n2nnn(C)c2=O)c1COc1ccc(-c2cc(Cl)ccn2)cc1C [Present Compound 13]
≤ 30%: area of lesion spots relative to that on an untreated plant ([1]; 200 ppm foliar spray) | lesion area with respect to the lesion area on the non-treated plant ([2]; 200 ppm foliar spray) | lesion area with respect to the lesion area on the non-treated plant ([2]; 500 ppm foliar spray) | area of lesion spots relative to that on an untreated plant [3, 6]

Cc1cc(-c2cc(Cl)ccn2)ccc1OCc1c(C)cccc1-n1nnn(C)c1=O [Present Compound 14]
≤ 30%: lesion area with respect to the lesion area on the non-treated plant ([2]; 200 ppm foliar spray) | area of lesion spots relative to that on an untreated plant [3, 6]

Cc1ccnc(-c2ccc(OCc3c(C)cccc3-n3nnn(C)c3=O)c(C)c2)c1 [Present Compound 20]
≤ 30%: area of lesion spots relative to that on an untreated plant ([1]; 200 ppm foliar spray) | lesion area with respect to the lesion area on the non-treated plant ([2]; 200 ppm foliar spray) | lesion area with respect to the lesion area on the non-treated plant ([2]; 500 ppm foliar spray) | area of lesion spots relative to that on an untreated plant [3, 7]

Cc1cccc(-c2ccc(OCc3c(C)cccc3-n3nnn(C)c3=O)c(C)c2)n1 [Present Compound 55]
≤ 30%: area of lesion spots relative to that on an untreated plant ([4]; 50 ppm foliar spray, inoculated after 1 day) | lesion area with respect to the lesion area on the non-treated plant ([2]; 200 ppm foliar spray)

CCc1cccc(-n2nnn(C)c2=O)c1COc1ccc(-c2ccc(C)nc2)cc1C [Present Compound 72]
≤ 30%: area of lesion spots relative to that on an untreated plant ([1]; 200 ppm foliar spray) | area of lesion spots relative to that on an untreated plant [3, 7]

Cc1ccc(-c2ccc(OCc3c(C4CC4)cccc3-n3nnn(C)c3=O)c(C)c2)cn1 [Present Compound 76]
≤ 30%: area of lesion spots relative to that on an untreated plant ([1]; 200 ppm foliar spray) | area of lesion spots relative to that on an untreated plant ([1]; 500 ppm foliar spray) | lesion area with respect to the lesion area on the non-treated plant ([2]; 200 ppm foliar spray) | area of lesion spots relative to that on an untreated plant [3, 6]

CCc1cccc(-n2nnn(C)c2=O)c1COc1ccc(-c2nccc(C)n2)cc1C [Present Compound 93]
≤ 30%: lesion area with respect to the lesion area on the non-treated plant ([2]; 500 ppm foliar spray) | area of lesion spots relative to that on an untreated plant [3, 6]

COc1ccc(-c2ccc(OCc3c(C)cccc3-n3nnn(C)c3=O)c(C)c2)nn1 [Present Compound 102, 1-{3-methyl-2-[2-methyl-4-(6-methoxypyridazin-3-yl)-phenoxymethyl]-phenyl}-4-methyl-1,4-dihydrotetrazol-5-one]
≤ 30%: area of lesion spots relative to that on an untreated plant ([1]; 200 ppm foliar spray) | area of lesion spots relative to that on an untreated plant [3, 6] | area of lesion spots relative to that on an untreated plant [3, 7]

Cc1ccc(-c2ccc(OCc3c(C)cccc3-n3nnn(C)c3=O)c(C)c2)cn1 [Present Compound 111]
≤ 30%: area of lesion spots relative to that on an untreated plant ([1]; 200 ppm foliar spray) | area of lesion spots relative to that on an untreated plant [3, 6]

Cc1cc(-c2cccnc2)c(C)cc1OCc1c(C)cccc1-n1nnn(C)c1=O [Present Compound 157]
≤ 30%: area of lesion spots relative to that on an untreated plant ([4]; 200 ppm foliar spray) | area of lesion spots relative to that on an untreated plant ([4]; 500 ppm foliar spray) | area of lesion spots relative to that on an untreated plant ([1]; 200 ppm foliar spray) | lesion area with respect to the lesion area on the non-treated plant ([2]; 200 ppm foliar spray) | area of lesion spots relative to that on an untreated plant ([5]; 200 ppm foliar spray) | area of lesion spots relative to that on an untreated plant ([5]; 500 ppm foliar spray)

Cc1cc(-c2cc(F)ccn2)c(C)cc1OCc1c(C)cccc1-n1nnn(C)c1=O [Present Compound 178]
≤ 30%: area of lesion spots relative to that on an untreated plant ([4]; 200 ppm foliar spray) | area of lesion spots relative to that on an untreated plant ([4]; 500 ppm foliar spray) | area of lesion spots relative to that on an untreated plant ([1]; 200 ppm foliar spray) | lesion area with respect to the lesion area on the non-treated plant ([2]; 200 ppm foliar spray) | area of lesion spots relative to that on an untreated plant ([5]; 200 ppm foliar spray) | area of lesion spots relative to that on an untreated plant ([5]; 500 ppm foliar spray)

Cc1ccc(-c2cc(C)c(OCc3c(Cl)cccc3-n3nnn(C)c3=O)cc2C)nc1 [Present Compound 180]
≤ 30%: area of lesion spots relative to that on an untreated plant ([4]; 200 ppm foliar spray) | area of lesion spots relative to that on an untreated plant ([4]; 500 ppm foliar spray) | area of lesion spots relative to that on an untreated plant ([1]; 200 ppm foliar spray) | lesion area with respect to the lesion area on the non-treated plant ([2]; 500 ppm foliar spray) | area of lesion spots relative to that on an untreated plant ([5]; 200 ppm foliar spray) | area of lesion spots relative to that on an untreated plant ([5]; 500 ppm foliar spray)

COc1cccc(-n2nnn(C)c2=O)c1COc1cc(C)c(-c2ccccn2)cc1C [Present Compound 221]
≤ 30%: area of lesion spots relative to that on an untreated plant ([1]; 200 ppm foliar spray) | area of lesion spots relative to that on an untreated plant ([1]; 500 ppm foliar spray) | lesion area with respect to the lesion area on the non-treated plant ([2]; 200 ppm foliar spray) | lesion area with respect to the lesion area on the non-treated plant ([2]; 500 ppm foliar spray)

Cc1cc(-c2ccccn2)c(C)cc1OCc1c(C2CC2)cccc1-n1nnn(C)c1=O [Present Compound 222]
≤ 30%: area of lesion spots relative to that on an untreated plant ([1]; 200 ppm foliar spray) | area of lesion spots relative to that on an untreated plant ([1]; 500 ppm foliar spray) | lesion area with respect to the lesion area on the non-treated plant ([2]; 200 ppm foliar spray) | lesion area with respect to the lesion area on the non-treated plant ([2]; 500 ppm foliar spray)

Cc1ccc(-c2cc(C)c(OCc3c(C)cccc3-n3nnn(C)c3=O)cc2F)nn1 [Present Compound 233]
≤ 30%: area of lesion spots relative to that on an untreated plant ([1]; 200 ppm foliar spray) | lesion area with respect to the lesion area on the non-treated plant ([2]; 200 ppm foliar spray)

Cc1ccc(-c2ccc(OCc3c(C)cccc3-n3nnn(C)c3=O)c(C)c2)nn1 [Present Compound 234]
≤ 30%: area of lesion spots relative to that on an untreated plant ([1]; 200 ppm foliar spray) | lesion area with respect to the lesion area on the non-treated plant ([2]; 200 ppm foliar spray)

Cc1ccc(-c2cc(C)c(OCc3c(C)cccc3-n3nnn(C)c3=O)cc2C)nn1 [Present Compound 235]
≤ 30%: area of lesion spots relative to that on an untreated plant ([1]; 200 ppm foliar spray) | area of lesion spots relative to that on an untreated plant ([1]; 500 ppm foliar spray) | lesion area with respect to the lesion area on the non-treated plant ([2]; 200 ppm foliar spray) | lesion area with respect to the lesion area on the non-treated plant ([2]; 500 ppm foliar spray)

Cc1cc(-c2ncc(F)cn2)ccc1OCc1c(C)cccc1-n1nnn(C)c1=O [Present Compound 236]
≤ 30%: area of lesion spots relative to that on an untreated plant ([1]; 200 ppm foliar spray) | lesion area with respect to the lesion area on the non-treated plant ([2]; 200 ppm foliar spray) | lesion area with respect to the lesion area on the non-treated plant ([2]; 500 ppm foliar spray)

Cc1cc(-c2ncc(Cl)cn2)ccc1OCc1c(C)cccc1-n1nnn(C)c1=O [Present Compound 237]
≤ 30%: area of lesion spots relative to that on an untreated plant ([1]; 200 ppm foliar spray) | lesion area with respect to the lesion area on the non-treated plant ([2]; 200 ppm foliar spray)

Cc1cc(-c2ncc(F)cn2)c(C)cc1OCc1c(C)cccc1-n1nnn(C)c1=O [Present Compound 238]
≤ 30%: area of lesion spots relative to that on an untreated plant ([1]; 200 ppm foliar spray) | area of lesion spots relative to that on an untreated plant ([1]; 500 ppm foliar spray) | lesion area with respect to the lesion area on the non-treated plant ([2]; 200 ppm foliar spray) | lesion area with respect to the lesion area on the non-treated plant ([2]; 500 ppm foliar spray)

Cc1cccc(-c2cc(C)c(OCc3c(C)cccc3-n3nnn(C)c3=O)cc2C)n1 [Present Compound 240]
≤ 30%: area of lesion spots relative to that on an untreated plant ([4]; 200 ppm foliar spray)

Cc1ccc(-c2cc(Cl)c(OCc3c(C)cccc3-n3nnn(C)c3=O)cc2C)nn1 [Present Compound 241]
≤ 30%: area of lesion spots relative to that on an untreated plant ([1]; 200 ppm foliar spray) | lesion area with respect to the lesion area on the non-treated plant ([2]; 200 ppm foliar spray)
